Where two headings read alike, the source gives them in different places. Results are given in words; binding and its absence hold for the method and conditions named. In cells and extracts the contact can be indirect. These calls come from enrichment with a bait or labelling near it, and not all partners need be listed. For some of these results: A no says only that the protein was not detected with the bait. Tags and fused reporters may be left off the sequences shown.
T1: Dcp-1::V5::TurboID (C-terminally V5::TurboID knocked-in Dcp-1) (Drosophila (endogenous knock-in in larval imaginal discs)) (UniProt O02002)
T1 sequence: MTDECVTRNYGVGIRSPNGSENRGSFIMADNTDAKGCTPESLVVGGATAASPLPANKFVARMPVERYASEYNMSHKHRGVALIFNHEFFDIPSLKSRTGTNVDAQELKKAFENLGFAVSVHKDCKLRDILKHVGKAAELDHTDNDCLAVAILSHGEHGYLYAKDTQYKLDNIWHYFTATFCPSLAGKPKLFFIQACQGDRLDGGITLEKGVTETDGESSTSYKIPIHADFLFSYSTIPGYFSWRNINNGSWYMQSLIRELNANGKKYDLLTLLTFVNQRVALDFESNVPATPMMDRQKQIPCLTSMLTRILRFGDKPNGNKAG

Amino acid sequences for entries named in this document (tags omitted).
UniProt Q26365: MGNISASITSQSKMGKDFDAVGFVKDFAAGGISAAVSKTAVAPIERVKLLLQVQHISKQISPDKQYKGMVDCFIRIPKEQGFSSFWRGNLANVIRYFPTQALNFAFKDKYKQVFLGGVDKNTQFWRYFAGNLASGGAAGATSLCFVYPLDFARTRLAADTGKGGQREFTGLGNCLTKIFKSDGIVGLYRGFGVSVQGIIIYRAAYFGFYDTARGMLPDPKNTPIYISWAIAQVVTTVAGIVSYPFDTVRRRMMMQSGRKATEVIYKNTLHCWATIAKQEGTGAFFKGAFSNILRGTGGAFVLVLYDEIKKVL


Key:
[1] = target: T1, Dcp-1::V5::TurboID (C-terminally V5::TurboID knocked-in Dcp-1) (Drosophila (endogenous knock-in in larval imaginal discs)); assay: proximity labelling
[2] = target: T1, Dcp-1::V5::TurboID (C-terminally V5::TurboID knocked-in Dcp-1) (Drosophila (endogenous knock-in in larval imaginal discs)); assay: proximity labelling; remark: listed apart in the source

| binding [1] | binding [2] | Molecule |
| --- | --- | --- |
| binds | – | SesB (from UniProt Q26365 1-312) |
| – | no binding | DIAP-1 (protein, UniProt Q24306 1-438) MASVVADLPSYGPIAFDQVDNNTNATQLFKNNINKTRMNDLNREETRLKTFTDWPLDWLDKRQLAQTGMYFTHAGDKVKCFFCGVEIGCWEQEDQPVPEHQRWSPNCPLLRRRTTNNVPINAEALDRILPPISYDICGANDSTLEMREHAYAEGVIPMSQLIQSIGMNAVNAAGSVTGTAAPQPRVTVATHASTATQATGDVQPETCRPSAASGNYFPQYPEYAIETARLRTFEAWPRNLKQKPHQLAEAGFFYTGVGDRVRCFSCGGGLMDWNDNDEPWEQHALWLSQCRFVKLMKGQLYIDTVAAKPVLAEEKEESSSIGGVAVASTQASEEEQQTSLSSEEAVSGDVAPSVAPTAATRIFNKIVEATAVATPSTNSSGSTSIPEEKLCKICYGAEYNTAFLPCGHVVACAKCASSVTKCPLCRKPFTDVMRVYFS |
| – | binds | Fkbp59 (protein, UniProt Q9VL78 1-439, biotinylated by TurboID (sites not given)) MPEGNKIDLSGDGGVLKEILKEGTGTETPHSGCTVSLHYTGRLVDGTEFDSSLSRNEPFEFSLGKGNVIKAFDMGVATMKLGERCFLTCAPNYAYGAAGSPPAIPPDATLIFELEMLGWKGEDLSPNQDGSIDRTILEASDKKRTPSDGAFVKAHISGSFEGRVFEDRDVEFDYGEGKAIGIIDGVEIALEKMNVGETSRIKIQAKYAFGAKGNEEFKIPPNATVEYTVKLVDCGKGLEEWKLSDEERLAEAKVYKEKGTNYFKKENWALAIKMYTKCKNILPTTVHTNEEVKKIKVATHSNIALCHQKSNDHFEAKQECNEVLALDKNNVKALYRRGQCNLTINELEDALEDFQKVIQLEPGNKAAANQVIICKQKLKESKNKEKKLYANMFTKLAANDKETEPPRETDVLSKCGEWSEEDAKREAELTLERDNIIMI |
| – | binds | Sirtuin 1 (Sirt1) (enzyme, UniProt Q9VK34 1-823, biotinylated by TurboID (sites not given)) MMENYEEIRLGHIRSKDLGNQVPDTTQFYPPTKFDFGAEILASTSTEAEAEAEATATTTEPATSELAGKANGEIKTKTLAAREEQEIGANLEHKTKNPTKSMGEDEDDEEEEEEDDEEEEEDDEEGITGTSNEDEDSSSNCSSSVEPDWKLRWLQREFYTGRVPRQVIASIMPHFATGLAGDTDDSVLWDYLAHLLNEPKRRNKLASVNTFDDVISLVKKSQKIIVLTGAGVSVSCGIPDFRSTNGIYARLAHDFPDLPDPQAMFDINYFKRDPRPFYKFAREIYPGEFQPSPCHRFIKMLETKGKLLRNYTQNIDTLERVAGIQRVIECHGSFSTASCTKCRFKCNADALRADIFAQRIPVCPQCQPNKEQSVDASVAVTEEELRQLVENGIMKPDIVFFGEGLPDEYHTVMATDKDVCDLLIVIGSSLKVRPVAHIPSSIPATVPQILINREQLHHLKFDVELLGDSDVIINQICHRLSDNDDCWRQLCCDESVLTESKELMPPEHSNHHLHHHLLHHRHCSSESERQSQLDTDTQSIKSNSSADYILGSAGTCSDSGFESSTFSCGKRSTAAEAAAIERIKTDILVELNETTALSCDRLGLEGPQTTVESYRHLSIDSSKDSGIEQCDNEATPSYVRPSNLVQETKTVAPSLTPIPQQRGKRQTAAERLQPGTFYSHTNNYSYVFPGAQVFWDNDYSDDDDEEEERSHNRHSDLFGNVGHNYKDDDEDACDLNAVPLSPLLPPSLEAHIVTDIVNGSNEPLPNSSPGQKRTACIIEQQPTPAIETEIPPLKKRRPSEENKQQTQIERSEESPPPGQLAAV |
